{"sequences": {"note": "Protein sequences, listed by entry. Tags and fused reporters are not part of them. Lines headed by an entry give the natural chain unless they say otherwise; changes in a name come on top.", "UniProt P30872": "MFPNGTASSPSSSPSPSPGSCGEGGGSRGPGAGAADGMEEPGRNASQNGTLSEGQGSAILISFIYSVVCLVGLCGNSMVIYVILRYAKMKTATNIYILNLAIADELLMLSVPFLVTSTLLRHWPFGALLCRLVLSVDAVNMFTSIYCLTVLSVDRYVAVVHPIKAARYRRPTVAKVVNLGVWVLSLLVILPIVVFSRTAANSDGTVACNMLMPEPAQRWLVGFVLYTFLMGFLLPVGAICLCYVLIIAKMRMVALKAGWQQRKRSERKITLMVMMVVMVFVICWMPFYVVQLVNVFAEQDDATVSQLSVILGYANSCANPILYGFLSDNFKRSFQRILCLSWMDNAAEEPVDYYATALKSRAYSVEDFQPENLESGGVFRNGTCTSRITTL", "UniProt P32745": "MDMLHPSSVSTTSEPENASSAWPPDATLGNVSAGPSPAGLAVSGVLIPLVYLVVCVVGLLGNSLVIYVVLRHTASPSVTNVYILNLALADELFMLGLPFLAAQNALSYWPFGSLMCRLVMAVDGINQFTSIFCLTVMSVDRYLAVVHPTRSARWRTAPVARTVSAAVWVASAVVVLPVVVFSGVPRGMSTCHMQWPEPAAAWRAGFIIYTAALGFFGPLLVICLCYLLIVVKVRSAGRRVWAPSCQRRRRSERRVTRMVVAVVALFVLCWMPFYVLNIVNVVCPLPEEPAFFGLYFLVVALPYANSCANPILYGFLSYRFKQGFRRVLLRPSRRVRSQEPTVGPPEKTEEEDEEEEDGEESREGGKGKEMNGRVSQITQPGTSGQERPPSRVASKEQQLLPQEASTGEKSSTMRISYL", "UniProt P31391": "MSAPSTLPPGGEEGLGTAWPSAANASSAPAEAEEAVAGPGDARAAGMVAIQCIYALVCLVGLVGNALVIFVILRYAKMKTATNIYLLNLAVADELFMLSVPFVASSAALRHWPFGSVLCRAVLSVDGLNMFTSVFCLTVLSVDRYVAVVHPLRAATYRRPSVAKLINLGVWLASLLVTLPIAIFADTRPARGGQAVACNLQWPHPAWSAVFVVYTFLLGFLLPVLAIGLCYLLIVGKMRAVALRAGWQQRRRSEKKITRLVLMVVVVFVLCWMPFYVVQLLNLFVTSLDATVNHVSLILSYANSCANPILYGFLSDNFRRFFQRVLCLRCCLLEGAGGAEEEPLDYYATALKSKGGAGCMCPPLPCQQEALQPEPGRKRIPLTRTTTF", "UniProt P35346": "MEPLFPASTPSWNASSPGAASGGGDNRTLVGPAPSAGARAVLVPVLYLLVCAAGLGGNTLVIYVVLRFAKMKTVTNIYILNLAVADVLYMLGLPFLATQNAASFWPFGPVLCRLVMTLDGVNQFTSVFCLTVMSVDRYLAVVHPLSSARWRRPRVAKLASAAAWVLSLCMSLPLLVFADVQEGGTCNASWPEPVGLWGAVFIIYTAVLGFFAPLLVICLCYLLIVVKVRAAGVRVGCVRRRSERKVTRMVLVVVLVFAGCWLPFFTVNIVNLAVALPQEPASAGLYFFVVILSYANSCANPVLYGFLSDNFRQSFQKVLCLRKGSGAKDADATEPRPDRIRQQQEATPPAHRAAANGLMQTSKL", "UniProt P30874": "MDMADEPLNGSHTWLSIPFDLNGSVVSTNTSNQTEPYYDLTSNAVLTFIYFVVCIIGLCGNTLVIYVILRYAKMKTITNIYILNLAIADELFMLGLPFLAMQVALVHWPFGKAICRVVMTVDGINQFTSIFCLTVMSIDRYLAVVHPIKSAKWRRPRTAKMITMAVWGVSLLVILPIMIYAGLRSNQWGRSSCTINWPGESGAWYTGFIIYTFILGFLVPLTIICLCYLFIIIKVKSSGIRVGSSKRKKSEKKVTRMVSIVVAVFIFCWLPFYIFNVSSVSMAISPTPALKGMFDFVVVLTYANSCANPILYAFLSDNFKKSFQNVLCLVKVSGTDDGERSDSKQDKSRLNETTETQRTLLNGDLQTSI"}, "source": "patent US6465613B1", "about": "“Hydrophilic somatostatin analogs” (Tulane University, priority 1998, dated 2002)", "key": {"[1]": {"target": "T1, human SRIF receptor type 1 (Homo sapiens, UniProt P30872)", "T1 construct": "expressed in transfected cells; host or cells: CHO-K1 cells (membranes)", "test": "Radioligand binding assay, CHO-K1 membranes, 125I-Tyr11-SRIF", "settings": "read-out: Kd (nM) for human SRIF receptors type 1; CHO-K1 cell membranes, 0.05 nM 125I-Tyr11-SRIF", "experimental": "(§1) For this study, cell membranes were obtained from homogenates of CHO-K1 cells (Chinese hamster ovary cells) ectopically expressing one of the five known somatostatin receptor subtypes (the cells were transfected with cDNA encoding a somatostatin receptor subtype, according to standard methods (see, e.g., Ausubel et al., Current Protocols in Molecular Biology, John Wiley & Sons, New York, N.Y., 1994)). […] The final assay volume was 0.3 ml. Incubations were terminated by rapid filtration through GF/C filters pre-soaked in 0.3% polyethylenimine using a 2 Brandel rapid filtration module (48 wells each). Each tube and filter was then washed 3 times with 5 ml aliquots of cold buffer."}, "[2]": {"target": "T2, human SRIF receptor type 3 (Homo sapiens, UniProt P32745)", "T2 construct": "expressed in transfected cells; host or cells: CHO-K1 cells (membranes)", "test": "Radioligand binding assay, CHO-K1 membranes, 125I-Tyr11-SRIF", "settings": "read-out: Kd (nM) for human SRIF receptors type 3; CHO-K1 cell membranes, 0.05 nM 125I-Tyr11-SRIF", "experimental": "as §1"}, "[3]": {"target": "T3, human SRIF receptor type 4 (Homo sapiens, UniProt P31391)", "T3 construct": "expressed in transfected cells; host or cells: CHO-K1 cells (membranes)", "test": "Radioligand binding assay, CHO-K1 membranes, 125I-Tyr11-SRIF", "settings": "read-out: Kd (nM) for human SRIF receptors type 4; CHO-K1 cell membranes, 0.05 nM 125I-Tyr11-SRIF", "experimental": "as §1"}, "[4]": {"target": "T4, human SRIF receptor type 5 (Homo sapiens, UniProt P35346)", "T4 construct": "expressed in transfected cells; host or cells: CHO-K1 cells (membranes)", "test": "Radioligand binding assay, CHO-K1 membranes, 125I-Tyr11-SRIF", "settings": "read-out: Kd (nM) for human SRIF receptors type 5; CHO-K1 cell membranes, 0.05 nM 125I-Tyr11-SRIF", "experimental": "as §1"}, "[5]": {"target": "T5, human SRIF receptor type 2 (Homo sapiens, UniProt P30874)", "T5 construct": "expressed in transfected cells; host or cells: CHO-K1 cells (membranes)", "test": "Radioligand binding assay, CHO-K1 membranes, 125I-MK-678", "settings": "read-out: Kd (nM) for human SRIF receptors type 2, CHO-K1 cell membranes", "experimental": "as §1"}}, "note": "At least one compound was matched to its structure with a doubt left. Positions of bridges follow the written chain, without caps; N, C: chain ends. Non-standard residues stand in square brackets, D forms with d. Residues, ends and D or L forms follow the SMILES beside them. Dap = NC[C@H](N)C(=O)O"}
{"smiles": "C[C@@H](O)[C@H](NC(=O)[C@@H]1CSSC[C@H](NC(=O)[C@H](CN)NC(=O)[C@H](Cc2ccc(O)cc2)NC(=O)[C@H](CN)NC(=O)[C@H](Cc2ccc(O)cc2)NC(=O)[C@@H](N)CN)C(=O)N[C@@H](Cc2ccccc2)C(=O)N[C@H](Cc2c[nH]c3ccccc23)C(=O)N[C@@H](CCCCN)C(=O)N[C@@H]([C@@H](C)O)C(=O)N1)C(N)=O", "note": "[JF-06-43, Dap-Tyr-Dap-Tyr-Dap-c[Cys-Phe-D-Trp-Lys-Thr-Cys]-Thr-NH2] (H-[Dap]Y[Dap]Y[Dap]CF[dW]KTCT-NH2; disulfide 6-11; N-terminus assumed)", "values": [{"measurement": "Kd", "setting": "[1]", "value": 7.5, "unit": "nM"}, {"measurement": "Kd", "setting": "[2]", "value": 84.9, "unit": "nM"}, {"measurement": "Kd", "setting": "[3]", "value": "> 1000", "unit": "nM"}, {"measurement": "Kd", "setting": "[4]", "value": 8.9, "unit": "nM"}, {"measurement": "Kd", "setting": "[5]", "value": 2.4, "unit": "nM"}]}
